Measurements published in article PMC10439204.

Protein sequences, listed by entry. Tags and fused reporters are not part of them.
UniProt Q6GQQ9: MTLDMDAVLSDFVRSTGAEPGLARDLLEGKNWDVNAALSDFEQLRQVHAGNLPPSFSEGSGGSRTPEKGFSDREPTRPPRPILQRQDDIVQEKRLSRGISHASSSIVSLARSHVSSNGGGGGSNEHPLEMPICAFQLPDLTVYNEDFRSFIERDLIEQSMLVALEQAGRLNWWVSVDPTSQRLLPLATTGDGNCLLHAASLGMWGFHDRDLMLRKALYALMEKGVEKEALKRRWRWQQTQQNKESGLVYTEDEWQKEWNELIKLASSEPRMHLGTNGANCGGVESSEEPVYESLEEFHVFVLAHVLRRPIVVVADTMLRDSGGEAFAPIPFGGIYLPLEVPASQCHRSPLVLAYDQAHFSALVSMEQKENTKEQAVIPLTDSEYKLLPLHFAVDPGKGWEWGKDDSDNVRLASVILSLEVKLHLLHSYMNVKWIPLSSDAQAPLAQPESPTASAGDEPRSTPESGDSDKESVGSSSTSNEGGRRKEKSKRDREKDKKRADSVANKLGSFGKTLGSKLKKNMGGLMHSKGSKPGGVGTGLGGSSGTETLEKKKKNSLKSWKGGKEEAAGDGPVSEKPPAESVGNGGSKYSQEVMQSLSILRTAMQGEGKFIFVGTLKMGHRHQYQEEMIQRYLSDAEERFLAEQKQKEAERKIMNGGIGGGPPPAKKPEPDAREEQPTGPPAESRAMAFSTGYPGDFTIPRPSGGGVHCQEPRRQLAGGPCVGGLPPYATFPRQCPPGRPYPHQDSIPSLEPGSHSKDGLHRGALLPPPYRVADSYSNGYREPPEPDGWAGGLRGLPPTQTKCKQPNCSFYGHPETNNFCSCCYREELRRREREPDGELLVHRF

Biological target: Cellular zinc finger anti-NF-kappa-B protein (Cezanne) (human (endogenous in PC9 and Hek 293T)) (UniProt Q6GQQ9)
Test: affinity purification with mass spectrometry; Hek 293T cell lysate; IP with anti-Cezanne and protein G Plus-Agarose at 4 °C overnight, SDS-PAGE, stained band sent for LC-MS/MS

binding: binds
B1: CTCF (protein, UniProt P49711 1-727)
chain: MEGDAVEAIVEESETFIKGKERKTYQRRREGGQEEDACHLPQNQTDGGEVVQDVNSSVQMVMMEQLDPTLLQMKTEVMEGTVAPEAEAAVDDTQIITLQVVNMEEQPINIGELQLVQVPVPVTVPVATTSVEELQGAYENEVSKEGLAESEPMICHTLPLPEGFQVVKVGANGEVETLEQGELPPQEDPSWQKDPDYQPPAKKTKKTKKSKLRYTEEGKDVDVSVYDFEEEQQEGLLSEVNAEKVVGNMKPPKPTKIKKKGVKKTFQCELCSYTCPRRSNLDRHMKSHTDERPHKCHLCGRAFRTVTLLRNHLNTHTGTRPHKCPDCDMAFVTSGELVRHRRYKHTHEKPFKCSMCDYASVEVSKLKRHIRSHTGERPFQCSLCSYASRDTYKLKRHMRTHSGEKPYECYICHARFTQSGTMKMHILQKHTENVAKFHCPHCDTVIARKSDLGVHLRKQHSYIEQGKKCRYCDAVFHERYALIQHQKSHKNEKRFKCDQCDYACRQERHMIMHKRTHTGEKPYACSHCDKTFRQKQLLDMHFKRYHDPNFVPAAFVCSKCGKTFTRRNTMARHADNCAGPDGVEGENGGETKKSKRGRKRKMRSKKEDSSDSENAEPDLDDNEDEEEPAVEIEPEPEPQPVTPAPPPAKKRRGRPPGRTNQPKQNQPTAIIQVEDQNTGAIENIIVEVKKEPDAEPAEGEEEEAQPAATDAPNGDLTPEMILSMMDR

No constants are given. Whether binding was seen depends on the method and setting. In cells and extracts the contact can be indirect. These calls come from enrichment with a bait or labelling near it, and not all partners need be listed.
